Results published in publication PMC5602382.
Like-named read-outs stand apart in the source and are kept apart here. These are yes or no findings as the source states them, for the method shown. In cells and extracts the contact can be indirect. Some entries that bind do so weakly or less than the wild type.

Amino acid sequences for entries named in this document (tags omitted). A change or cut given only in a name is not applied to a line headed by its entry.
UniProt P22392: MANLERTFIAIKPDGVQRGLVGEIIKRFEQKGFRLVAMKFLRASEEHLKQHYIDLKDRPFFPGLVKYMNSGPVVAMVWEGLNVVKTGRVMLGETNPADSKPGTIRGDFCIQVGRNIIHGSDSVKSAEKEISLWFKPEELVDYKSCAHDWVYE
UniProt Q13547: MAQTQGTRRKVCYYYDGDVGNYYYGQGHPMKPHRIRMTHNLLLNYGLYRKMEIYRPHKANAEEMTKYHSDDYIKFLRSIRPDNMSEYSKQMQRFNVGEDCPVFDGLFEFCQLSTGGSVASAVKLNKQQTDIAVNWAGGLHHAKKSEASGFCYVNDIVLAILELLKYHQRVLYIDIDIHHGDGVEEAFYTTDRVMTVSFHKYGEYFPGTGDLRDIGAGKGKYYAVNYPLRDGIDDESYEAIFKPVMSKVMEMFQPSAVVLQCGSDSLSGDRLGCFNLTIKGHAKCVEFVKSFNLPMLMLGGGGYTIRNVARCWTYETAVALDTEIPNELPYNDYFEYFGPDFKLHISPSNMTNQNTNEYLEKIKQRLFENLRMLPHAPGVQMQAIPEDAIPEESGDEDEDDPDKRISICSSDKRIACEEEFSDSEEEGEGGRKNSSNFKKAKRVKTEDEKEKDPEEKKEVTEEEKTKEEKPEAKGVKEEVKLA
UniProt Q92769: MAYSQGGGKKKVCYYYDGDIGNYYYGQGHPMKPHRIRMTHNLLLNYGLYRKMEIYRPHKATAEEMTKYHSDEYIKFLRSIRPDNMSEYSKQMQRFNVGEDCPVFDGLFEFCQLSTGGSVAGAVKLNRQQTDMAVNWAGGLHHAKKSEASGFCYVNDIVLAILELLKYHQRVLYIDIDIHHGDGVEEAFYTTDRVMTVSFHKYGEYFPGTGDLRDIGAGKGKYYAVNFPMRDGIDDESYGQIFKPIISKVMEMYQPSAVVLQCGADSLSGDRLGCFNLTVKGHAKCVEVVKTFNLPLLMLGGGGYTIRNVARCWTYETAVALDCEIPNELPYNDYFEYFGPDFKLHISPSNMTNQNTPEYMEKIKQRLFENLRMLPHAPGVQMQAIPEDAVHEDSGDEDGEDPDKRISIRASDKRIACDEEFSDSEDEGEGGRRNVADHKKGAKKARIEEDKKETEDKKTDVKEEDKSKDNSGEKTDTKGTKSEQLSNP

Tests used:
[1] = target: T1, RE1-silencing transcription factor (REST) (human (endogenous in HT1080)) (UniProt Q13127); test: co-IP; reverse co-IP with anti-REST or anti-LSD1 antibody, NME2 detected
T1 sequence: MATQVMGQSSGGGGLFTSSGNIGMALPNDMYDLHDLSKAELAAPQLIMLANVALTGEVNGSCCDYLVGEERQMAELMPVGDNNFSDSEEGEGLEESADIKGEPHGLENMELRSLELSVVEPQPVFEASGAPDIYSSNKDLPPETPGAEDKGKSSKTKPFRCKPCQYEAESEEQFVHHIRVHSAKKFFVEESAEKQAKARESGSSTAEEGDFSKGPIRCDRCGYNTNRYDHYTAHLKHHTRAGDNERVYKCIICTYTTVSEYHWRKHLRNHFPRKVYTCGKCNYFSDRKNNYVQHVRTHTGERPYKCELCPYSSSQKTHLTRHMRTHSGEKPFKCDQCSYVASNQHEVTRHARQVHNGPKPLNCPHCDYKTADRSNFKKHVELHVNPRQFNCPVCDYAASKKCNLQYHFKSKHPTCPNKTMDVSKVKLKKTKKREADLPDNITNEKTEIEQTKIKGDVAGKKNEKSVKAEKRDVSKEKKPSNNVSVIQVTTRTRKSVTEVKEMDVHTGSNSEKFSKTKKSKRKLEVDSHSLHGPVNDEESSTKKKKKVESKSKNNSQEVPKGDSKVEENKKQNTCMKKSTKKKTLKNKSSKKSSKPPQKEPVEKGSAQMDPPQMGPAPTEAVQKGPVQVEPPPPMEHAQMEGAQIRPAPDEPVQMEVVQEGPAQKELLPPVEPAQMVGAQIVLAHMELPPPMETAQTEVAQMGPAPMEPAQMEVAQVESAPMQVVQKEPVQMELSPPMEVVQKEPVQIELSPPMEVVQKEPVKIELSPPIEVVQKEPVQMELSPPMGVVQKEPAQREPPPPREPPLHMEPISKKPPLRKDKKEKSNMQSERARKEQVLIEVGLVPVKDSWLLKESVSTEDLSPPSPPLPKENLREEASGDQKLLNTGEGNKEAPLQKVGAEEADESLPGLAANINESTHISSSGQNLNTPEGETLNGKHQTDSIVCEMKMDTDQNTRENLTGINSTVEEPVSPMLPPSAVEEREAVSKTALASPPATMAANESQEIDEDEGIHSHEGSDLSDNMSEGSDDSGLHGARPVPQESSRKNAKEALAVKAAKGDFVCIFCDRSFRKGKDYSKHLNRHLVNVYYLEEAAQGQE

[2] = target: non-metastatic 2 (NME2) (human (endogenous in HT1080)) (UniProt P22392); test: co-IP; 500 ug HT1080 nuclear extract, 4 ug anti-NME2 antibody (Kamiya), 4 h at 4 °C, Catch and Release kit; blots for REST, LSD1, HDAC1, HDAC2; isotype control IgG
[3] = target: HA-NME2(N69H) (human) (UniProt P22392); test: co-IP; nuclear lysate of HT1080 cells expressing HA-NME2 or HA-NME2(N69H), immunoprecipitated with anti-HA antibody, probed with anti-REST antibody
[4] = target: HA-tagged NME2 (HA-NME2) (human) (UniProt P22392); test: as above
[5] = target: non-metastatic 2 (NME2) (human (endogenous in HT1080)) (UniProt P22392); test: co-IP; 500 ug HT1080 nuclear extract, 4 ug anti-NME2 antibody (Kamiya), 4 h at 4 °C, Catch and Release kit; blots for REST, LSD1, HDAC1, HDAC2; isotype control IgG; remark: listed apart in the source

“non-metastatic 2 (NME2) (from UniProt P22392 1-152)” was tested, and the binding [1] was “binds”.

HDAC1 (from UniProt Q13547 1-482) was tested, and the binding [2] was “binds”.

In the case of HDAC2 (from UniProt Q92769 1-488), the binding [2] is reported as “binds”.

B1: RE1-silencing transcription factor (REST) (protein, UniProt Q13127 1-1097)
chain: MATQVMGQSSGGGGLFTSSGNIGMALPNDMYDLHDLSKAELAAPQLIMLANVALTGEVNGSCCDYLVGEERQMAELMPVGDNNFSDSEEGEGLEESADIKGEPHGLENMELRSLELSVVEPQPVFEASGAPDIYSSNKDLPPETPGAEDKGKSSKTKPFRCKPCQYEAESEEQFVHHIRVHSAKKFFVEESAEKQAKARESGSSTAEEGDFSKGPIRCDRCGYNTNRYDHYTAHLKHHTRAGDNERVYKCIICTYTTVSEYHWRKHLRNHFPRKVYTCGKCNYFSDRKNNYVQHVRTHTGERPYKCELCPYSSSQKTHLTRHMRTHSGEKPFKCDQCSYVASNQHEVTRHARQVHNGPKPLNCPHCDYKTADRSNFKKHVELHVNPRQFNCPVCDYAASKKCNLQYHFKSKHPTCPNKTMDVSKVKLKKTKKREADLPDNITNEKTEIEQTKIKGDVAGKKNEKSVKAEKRDVSKEKKPSNNVSVIQVTTRTRKSVTEVKEMDVHTGSNSEKFSKTKKSKRKLEVDSHSLHGPVNDEESSTKKKKKVESKSKNNSQEVPKGDSKVEENKKQNTCMKKSTKKKTLKNKSSKKSSKPPQKEPVEKGSAQMDPPQMGPAPTEAVQKGPVQVEPPPPMEHAQMEGAQIRPAPDEPVQMEVVQEGPAQKELLPPVEPAQMVGAQIVLAHMELPPPMETAQTEVAQMGPAPMEPAQMEVAQVESAPMQVVQKEPVQMELSPPMEVVQKEPVQIELSPPMEVVQKEPVKIELSPPIEVVQKEPVQMELSPPMGVVQKEPAQREPPPPREPPLHMEPISKKPPLRKDKKEKSNMQSERARKEQVLIEVGLVPVKDSWLLKESVSTEDLSPPSPPLPKENLREEASGDQKLLNTGEGNKEAPLQKVGAEEADESLPGLAANINESTHISSSGQNLNTPEGETLNGKHQTDSIVCEMKMDTDQNTRENLTGINSTVEEPVSPMLPPSAVEEREAVSKTALASPPATMAANESQEIDEDEGIHSHEGSDLSDNMSEGSDDSGLHGARPVPQESSRKNAKEALAVKAAKGDFVCIFCDRSFRKGKDYSKHLNRHLVNVYYLEEAAQGQE
For B1, the binding [3] was “binds”, the binding [4] was “binds” and the binding [5] was “binds”.
